Measurements: paper PMC9669022

Molecular target: Pbkinesin-8B-GFP (P. berghei)
Experiment: affinity purification with mass spectrometry; GFP-Trap immunoprecipitation of Pbkinesin-8B-GFP from lysate of P. berghei gametocytes activated for 6 min; LC-MS/MS; two biological replicates, GFP-only control

binding: binds
B1: calcium-dependent protein kinase 4 (protein, UniProt P62345 1-528)
chain: MGQEMSTQSDMQNENQKGNKRNLKGSQGKNGLKERSTSISKEIVKNSFNNSKLRPGMFIQNSNVVFNEQYKGIKILGKGSFGEVILSKDKHTGHEYAIKVISKKHVKRKTDKQSLLREVELLKMLDHINIMKLYEFFEDNNYYYLVSDVYSGGELFDEIISRKRFYEVDAARIIKQVLSGITYMHKNNVVHRDLKPENILLETKNKEDMIIKIIDFGLSTHFEYSKKMKDKIGTAYYIAPDVLHGTYDEKCDIWSCGVILYILLSGCPPFNGSNEYDILKKVETGKYTFDLPQFKKISDKAKDLIKKMLMYTSAVRISARDALEHEWIRLMTSKDNVNIDIPSLELSITNIKQFQSTQKLAQAALLYMGSKLTTIDETKELTKIFKKMDKNGDGQLDRNELIIGYKELLKLKGDDTTDLDNAAIEVEVDQILSSIDLDQNGYIEYSEFLTVAIDRKLLLSTERLEKAFKLFDKDGSGKISANELAQLFGLGDVSSDCWKTVLKEVDQNNDGEIDFKEFRDMLIKLCNY

These are yes or no findings as the source states them, for the method shown. Binding seen in cells or lysates may run through a third protein. These calls come from enrichment with a bait or labelling near it, and not all partners need be listed.
